{"source": "patent US4057545A", "about": "“Imidazole derivatives” (Nordmark-Werke GmbH Hamburg, priority 1975, dated 1977)", "system": "Candida albicans", "assay": "oral effectiveness in Candida-infected mice (survival)", "assay_type": "in vivo", "conditions": "of 10 mice, 100 mg/kg twice daily for 7 days", "excerpt": "Accordingly, the compounds according to the invention are particularly suitable for the oral treatment of generalized infections by fungi and yeasts in human and veterinary medicine. Since the hitherto available medicaments are not yet satisfactory (Lit.: Infection 2, (1974) 95-107), they represent a valuable addition to pharmacology. In addition, they may be used equally effectively for the local treatment of surface infections and for the treatment of infections of the mucosa excessible to local treatment. Typical diseases of thiskind, for the treatment of which the compounds of the present invention are particular useful, are for instance generalized candidoses, candidoses of the lungs, of the skin or of the genitals or generalized trichophytoses (tineas) or trichophytoses of the skin, of the nails or of the hair.\nIn order to determine the oral effectiveness of the compounds, groups of 10 mice each weighing approximately 20 g were each treated i.m for 2 days with 50 mg/kg of hydrocortisone to ensure effective development of the infection. The mice were then each infected i.v. with 500,000 Candida albicans germs and thereafter were treated twice daily for 7 days with 100 mg/kg of the substance to be tested. In addition to an infected, but untreated control group, one group was treated with the reference substance Miconazole for comparison.", "note": "At least one read-out could not be matched to a standard name with certainty.", "data": [{"molecule": "Clc1ccc(COC(Cn2ccnc2)c2ccc(Cl)cc2Cl)c(Cl)c1", "note": "(stereo not drawn) [Miconazole, 1-[2,4-dichloro-β-(2,4,-dichlorobenzyloxy)-phenethyl]-imidazole nitrate, reference compound]", "values": [{"measurement": "Number of surviving animals", "setting": "day 1 after infection", "value": 10}, {"measurement": "Number of surviving animals", "setting": "day 2 after infection", "value": 10}, {"measurement": "Number of surviving animals", "setting": "day 3 after infection", "value": 8}, {"measurement": "Number of surviving animals", "setting": "day 4 after infection", "value": 8}, {"measurement": "Number of surviving animals", "setting": "day 5 after infection", "value": 6}, {"measurement": "Number of surviving animals", "setting": "day 6 after infection", "value": 4}, {"measurement": "Number of surviving animals", "setting": "day 7 after infection", "value": 2}]}]}
